Results are given in words; binding and its absence hold for the method and conditions named. Some binding calls cover weakened binding; strength is not graded here.
Molecular target: BCMA antigen (UniProt Q02223)
Experiment: flow cytometry, CAR-T cells stained with BCMA antigen

Protein sequences, listed by entry. Tags and fused reporters are not part of them. Residues count along the entry.
UniProt Q02223, residues 1-54: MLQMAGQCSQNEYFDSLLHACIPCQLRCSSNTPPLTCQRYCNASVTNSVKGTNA

B1: CAR-S1 (single S scFv CAR targeting BCMA, on CAR-T cells) (scFv, V domains shown)
VH: QVQLVQSGAEVKKPGASVKLSCKASGYTFTDYYIHWVRQAPGQGLEWIGYINPNSGYTNYAQKFQGRATMTADKSINTAYVELSRLRSDDTAVYFCTRYMWERVTGFFDFWGQGTMVTVSS
VL: DIQMTQSPSSVSASVGDRVTITCLASEDISDDLAWYQQKPGKAPKVLVYTTSSLQSGVPSRFSGSGSGTDFTLTISSLQPEDFATYFCQQTYKFPPTFGGGTKVEIKR
In the case of B1, the binding is reported as “binds”.

Source: patent US20240327533A1
